According to patent publication US8198099B2, “Mechanism to signal receptor-ligand interactions with luminescent quantum dots” (The University of Miami, priority 2006, dated 2012):

Assay: Stern-Volmer quenching of quantum dot luminescence by bipyridinium quenchers
Format: binding
Conditions: quantum dots 1.5 μM, sodium phosphate buffer, pH=7.8, 20° C., λEx=350 nm
Experimental: The emission spectra (λEx=350 nm) of the same solution were recorded before (b) and after the consecutive addition of 1 (c, 4.1 μM) and 3 (d, 21 μM). Also shown is a Stern-Volmer plot (e) of hydrophilic CdSe—ZnS core-shell quantum dots (1.5 μM, sodium phosphate buffer, pH=7.8, 20° C., λEx=350 nm) upon addition of increasing amounts of 1.
Also shown is a Stern-Volmer plot (d) of hydrophilic CdSe—ZnS core-shell quantum dots (1.5 μM, sodium phosphate buffer, pH=7.8, 20° C., λEx=350 nm) after addition of increasing amounts of 2.
Indeed, bipyridinium dications are known to accept electrons from excited CdSe and CdSe—ZnS core-shell quantum dots, quenching their luminescence.36-37 The corresponding Stern-Volmer plot (e in FIG. 2) deviated from linearity at quencher concentrations greater than about 2.5 μM. […]
In order to test the potential of our operating principles to signal receptor-ligand interactions, we designed a compound (2 in FIG. 3) integrating a bipyridinium quencher and a biotin ligand within the same molecular skeleton and prepared this molecule in two synthetic steps (see FIG. 6). Once again, the luminescence of the hydrophilic quantum dots decreases upon exposure to 2 (a and b in FIG. 7) (the addition of either 1 or 2 to a solution of the quantum dots has no influence on the visible region of the absorption spectrum). […]

| Structure (SMILES) | quencher concentration above which the Stern-Volmer plot deviates from linearity |
| --- | --- |
| C[n+]1ccc(-c2cc[n+](CCCOCCCCCC3SCC4NC(=O)NC43)cc2)cc1.[I-].[I-] (centres unmarked) [compound 2, 1-Methyl-1′-(3-(5-(2-Oxohexahydrothieno[3,4-d]imidazol-6-yl)-pentanoxy)-propyl)-4,4′-Bipyridinium Bisiodide] | about 2.5 μM |
| C[n+]1ccc(-c2cc[n+](C)cc2)cc1 [compound 1, methyl viologen, reference compound] | about 2.5 μM |
